Numbering of substitutions follows the chain as printed. Results are given in words; binding and its absence hold for the method and conditions named. In cells and extracts the contact can be indirect. Some entries that bind do so weakly or less than the wild type. Tags and fused reporters may be left off the sequences shown.
Key:
Assay in all cases: co-IP; anti-V5 immunoprecipitation of V5-KSR from S2 total lysates, protein A/G agarose, overnight at 4 °C; MEK blotted; without or with co-expressed CNK^2–549–HYP
[1] = molecular target: T1, V5-KSR R913E (Drosophila) (UniProt Q24171)
T1 sequence: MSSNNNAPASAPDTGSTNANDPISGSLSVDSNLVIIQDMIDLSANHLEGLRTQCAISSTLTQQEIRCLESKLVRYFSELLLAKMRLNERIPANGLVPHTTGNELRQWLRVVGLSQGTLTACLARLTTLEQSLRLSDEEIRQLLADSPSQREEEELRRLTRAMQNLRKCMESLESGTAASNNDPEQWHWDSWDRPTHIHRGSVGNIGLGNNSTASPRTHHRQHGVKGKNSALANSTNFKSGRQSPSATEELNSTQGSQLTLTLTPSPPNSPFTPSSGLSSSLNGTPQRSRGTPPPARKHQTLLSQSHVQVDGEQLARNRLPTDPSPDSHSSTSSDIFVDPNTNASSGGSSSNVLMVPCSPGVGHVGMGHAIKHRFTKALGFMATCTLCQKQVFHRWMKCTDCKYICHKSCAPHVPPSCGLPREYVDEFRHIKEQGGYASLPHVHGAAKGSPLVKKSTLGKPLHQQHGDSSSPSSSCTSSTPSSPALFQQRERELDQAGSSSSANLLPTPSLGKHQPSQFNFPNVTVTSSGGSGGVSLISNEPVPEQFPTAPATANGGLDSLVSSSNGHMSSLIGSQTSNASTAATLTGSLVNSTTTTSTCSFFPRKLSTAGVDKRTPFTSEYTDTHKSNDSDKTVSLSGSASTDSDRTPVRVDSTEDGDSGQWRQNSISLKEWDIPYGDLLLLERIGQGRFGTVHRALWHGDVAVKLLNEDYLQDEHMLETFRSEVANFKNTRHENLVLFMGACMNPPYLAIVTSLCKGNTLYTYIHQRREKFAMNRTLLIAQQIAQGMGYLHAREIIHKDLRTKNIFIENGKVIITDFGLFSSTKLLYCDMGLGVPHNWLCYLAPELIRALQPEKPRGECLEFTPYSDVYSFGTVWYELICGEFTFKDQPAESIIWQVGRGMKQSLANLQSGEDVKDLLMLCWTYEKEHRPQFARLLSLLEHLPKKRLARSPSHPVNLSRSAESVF

Sequences of proteins named here, by UniProt entry; tags and fusion partners are left off.
UniProt Q24324: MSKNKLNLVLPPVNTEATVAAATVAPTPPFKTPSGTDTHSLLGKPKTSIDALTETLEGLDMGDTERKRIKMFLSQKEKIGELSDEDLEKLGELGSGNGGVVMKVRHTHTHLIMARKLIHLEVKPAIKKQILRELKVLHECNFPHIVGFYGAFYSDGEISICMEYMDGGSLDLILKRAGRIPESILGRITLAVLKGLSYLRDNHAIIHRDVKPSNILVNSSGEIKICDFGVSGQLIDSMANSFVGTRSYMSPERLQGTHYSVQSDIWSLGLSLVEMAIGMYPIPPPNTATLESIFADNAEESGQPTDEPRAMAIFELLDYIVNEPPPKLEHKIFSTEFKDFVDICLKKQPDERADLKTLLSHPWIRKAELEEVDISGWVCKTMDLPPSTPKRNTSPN

[2] = molecular target: T2, V5-KSR Y925D (Drosophila) (UniProt Q24171)
T2 sequence: T1 sequence with E913R, Y925D

V5-KSR (Drosophila) = molecular target: T3, V5-KSR (Drosophila) (UniProt Q24171)
T3 sequence: T1 sequence with E913R

Measured: binding

Myc-MEK (from UniProt Q24324 1-396)
binds: [1] | [2] | V5-KSR (Drosophila)
